# Test results: article PMC8444549
# By UniProt entry, the sequences of proteins in these tests, tags left out. Where a name states a change or a piece, a line headed by the entry shows the natural chain unless it says otherwise. Residues count along the entry.
# UniProt P01127, residues 82-190: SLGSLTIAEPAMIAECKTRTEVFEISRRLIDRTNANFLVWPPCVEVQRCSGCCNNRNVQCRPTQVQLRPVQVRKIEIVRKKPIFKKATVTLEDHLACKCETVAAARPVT
# UniProt P27701: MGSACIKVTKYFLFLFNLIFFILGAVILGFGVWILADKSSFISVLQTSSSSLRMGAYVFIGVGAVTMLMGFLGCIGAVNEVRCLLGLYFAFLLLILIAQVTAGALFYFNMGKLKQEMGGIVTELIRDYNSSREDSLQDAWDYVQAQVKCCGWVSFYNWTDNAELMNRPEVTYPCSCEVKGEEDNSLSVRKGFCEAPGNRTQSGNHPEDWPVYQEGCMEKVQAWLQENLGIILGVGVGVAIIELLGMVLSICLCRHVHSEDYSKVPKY
# These are yes or no findings as the source states them, for the method shown. For some assays here: Binding can be weak; no strength is given. For some assays here: In cells and extracts the contact can be indirect. For some assays here: Tags and fused reporters may be left off the sequences shown.
# B1: KAI1-Myc (protein, UniProt P40237 1-266)
# chain: MGAGCVKVTKYFLFLFNLLFFILGAVILGFGVWILADKNSFISVLQTSSSSLQVGAYVFIGVGAITIVMGFLGCIGAVNEVRCLLGLYFVFLLLILIAQVTVGVLFYFNADKLKKEMGNTVMDIIRNYTANATSSREEAWDYVQAQVKCCGWVSHYNWTENEELMGFTKTTYPCSCEKIKEEDNQLIVKKGFCEADNSTVSENNPEDWPVNTEGCMEKAQAWLQENFGILLGVCAGVAVIELLGLFLSICLCRYIHSEDYSKVPKY
# Tests used:
# [1] = target: recombinant human PDGF-BB (human) (UniProt P01127); assay: BLI; BLItz instrument (ForteBio), real-time binding, shift in nm; the legends call it surface plasmon resonance (BLItz system); who was immobilised is not stated; both purified
# [2] = target: recombinant human VEGF-A (human); assay: as above
# [3] = target: recombinant human VEGF-A (human); assay: condition: only cells treated with 2-bp (inhibitor of palmitoylation); co-IP; as a3, 293T cells treated with 2-bp (inhibition of palmitoylation); only the target purified
# [4] = target: recombinant human VEGF-A (human); assay: co-IP; 293T cell lysates in IP buffer, anti-VEGF-A or anti-PDGF-BB antibody overnight at 4 °C, protein A/G sepharose, western blot; legend names rhVEGF-A and rhPDGF-BB; only the target purified
molecule,measurement,setting,value
recombinant human KAI1 (from UniProt P27701),binding,[1],binds
"NRPEVTYPCSCEVKGEEDNS [KAI1 peptide, wild-type sequence]",binding,[2],binds
B1,binding,[3],no binding
same,binding,[4],binds
"NRPEVTAPASCEVKGAAANS [KAI1 peptide, mutant sequence]",binding,[2],no binding
